Measured values published in patent publication US5034419A, “N-cycloalkylalkylamines, process for their preparation, their use as medicament and their synthesis intermediates” (L'Oreal, priority 1988, dated 1991).
Where a name gives a salt, the structure may show the parent alone. For at least one compound, name, drawing or mass did not settle the structure.

Assays:
[1] = molecular target: mu receptors; assay: in vitro affinity for mu receptors; type: binding; conditions: Table 3; hydrochloride; read-out: mu rec. IC50
Method: (§1) The "in vitro" study of the affinity of the compounds according to the invention for the three opium receptors is carried out in accordance with the technique described by F. Roman and coll. in J. Pharm. Pharmacol. 1987, 39, p. 404-407 and the study of the affinity for PCP receptors is carried out in accordance with the technique described by Vignon J. and coll. in "Brain Res." 1983; 280, p. 194-7 and 1986; 378, p. 133-41.
(§2) The results shown in table 3 are, for each receptor studied, expressed in IC50, which are the nanomolar concentrations of the dissolved products which are capable of inhibiting 50% of the bonds between the specific radioactive ligand to the receptor under consideration.

[2] = molecular target: PCP receptors; assay: in vitro affinity for phencyclidine (PCP) receptors; type: binding; conditions: Table 3; hydrochloride; read-out: PCP rec. IC50
Method: as §1, §2

[3] = antagonism of amnesia caused by scopolamine, passive avoidance test; design: species or system mice; conditions: mouse, in vivo
Method: The animal is introduced into the illuminated compartment, and when it moves to the dark compartment it receives an electric current (0.35 mA) through the base until it returns to the illuminated compartment, from where it is then removed.
After 24 hours, the operation is repeated. The mouse is replaced in the apparatus and it avoids entering into the dark compartment. The time which elapses before passage into this compartment is recorded; under the conditions of the experiment, the efficacy of the compounds under investigation in antagonizing the amnesic effect of scopolamine, which is administered intraperitoneally in an amount of 1 mg/kg 30 minutes before the animal is first introduced into the apparatus, can be evaluated.
In control mice which have received only scopolamine, the time elapsed before passage after 24 hours is remarkably lower than that observed in the untreated animals.
The study of the products according to the invention by this method is performed on groups of 18 mice and the products are administered orally on the first day in an amount of 0.25 mg/kg 30 minutes before administration of scopolamine i.p.

Row | SMILES | IC50 [1] [µM] | IC50 [2] [µM] | antagonism of amnesia caused by scopolamine (in words) [3]
1 | CCC(CC=Cc1ccccc1)(c1ccccc1)N(C)CC1CC1 (single isomer, unassigned) [Example 10, (+)-α-Cinnamyl-N-cyclopropyl-methyl-α-ethyl-N-methyl-benzylamine hydrochloride] | 6.32 | 4.59 | conclusive of an activity of the products according to the invention at a low dose
2 | CCC(CC=Cc1ccccc1)(c1ccccc1)N(C)CC1CC1 (single isomer, unassigned) [Example 11, (-)-α-Cinnamyl-N-cyclopropyl-methyl-α-ethyl-N-methyl-benzylamine hydrochloride] | 6.58 | 7.1 | –
